Measured values from the supplement of paper PMC4604168 (melanoma cell lines).
Some of the results follow. Single values are uncertain, as repeats are few or missing.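 Cells were imaged in 1,536-well plates, and nuclei stained with an antibody against cleaved PARP were counted against all DNA-stained nuclei to give the apoptosis fraction. Screening doses were chosen to leave most cells alive, and resting and induced cleaved-PARP levels differ strongly between cell lines.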

How the values were obtained:
Test in all cases: cleaved PARP positive nuclei fraction relative to DMSO control; melanoma cells; higher = more apoptosis
Conditions in all cases: library dose: low library concentration; 72 h
MZ2-MEL = tested on: MZ2-MEL
MeWo = tested on: MeWo
RPMI7951 = tested on: RPMI7951
RVH-421 = tested on: RVH-421
SkMel28 = tested on: SkMel28
SkMel2 = tested on: SkMel2
SkMel30 = tested on: SkMel30
UACC62 = tested on: UACC62
WM115 = tested on: WM115
WM1716 = tested on: WM1716
WM1745 = tested on: WM1745
WM3526 = tested on: WM3526
WM3619 = tested on: WM3619
WM451Lu = tested on: WM451Lu
SkMel5 = tested on: SkMel5
UACC257 = tested on: UACC257

Structure (SMILES) | cleaved PARP positive nuclei fraction (MZ2-MEL) [%] | cleaved PARP positive nuclei fraction (MeWo) [%] | cleaved PARP positive nuclei fraction (RPMI7951) [%] | cleaved PARP positive nuclei fraction (RVH-421) [%] | cleaved PARP positive nuclei fraction (SkMel28) [%] | cleaved PARP positive nuclei fraction (SkMel2) [%] | cleaved PARP positive nuclei fraction (SkMel30) [%] | cleaved PARP positive nuclei fraction (UACC62) [%] | cleaved PARP positive nuclei fraction (WM115) [%] | cleaved PARP positive nuclei fraction (WM1716) [%] | cleaved PARP positive nuclei fraction (WM1745) [%] | cleaved PARP positive nuclei fraction (WM3526) [%] | cleaved PARP positive nuclei fraction (WM3619) [%] | cleaved PARP positive nuclei fraction (WM451Lu) [%] | cleaved PARP positive nuclei fraction (SkMel5) [%] | cleaved PARP positive nuclei fraction (UACC257) [%]
Cn1c(=O)n(-c2ccc(C(C)(C)C#N)cc2)c2c3cc(-c4cnc5ccccc5c4)ccc3ncc21 + CC(C)C[C@H](NC(=O)[C@H](Cc1ccccc1)NC(=O)c1cnccn1)B(O)O [Bortezomib] (first compound 0.004 µM, partner dose 0.001 µM) | 54.2 | 135 | 111 | 101 | 47.8 | 101 | 78.3 | 151 | 106 | 114 | 104 | 46.4 | 291 | 91.2 |  | 
CO[C@H]1C[C@@H]2CC[C@@H](C)[C@@](O)(O2)C(=O)C(=O)N2CCCC[C@H]2C(=O)O[C@H]([C@H](C)C[C@@H]2CC[C@@H](OCCO)[C@H](OC)C2)CC(=O)[C@H](C)/C=C(\C)[C@@H](O)[C@@H](OC)C(=O)[C@H](C)C[C@H](C)/C=C/C=C/C=C/1C [everolimus] + c1cc(-c2cnn3cc(-c4ccc(OCCN5CCCCC5)cc4)cnc23)ccn1 [Dorsomorphin] (first compound 0.02 µM, partner dose 0.4 µM) | 151 | 35 | 33.7 | 133 | 536 |  | 52.7 | 229 | 145 | 33.9 | 96.3 | 109 | 99.6 | 44.8 | 86.8 | 580
C[C@@H](Oc1cc(-c2cnn(C3CCNCC3)c2)cnc1N)c1c(Cl)ccc(F)c1Cl [Crizotinib] + O=C(O)[C@@H]1[O][Sb](=[O])([O][Sb]2(=[O])[O][C@H]([C@H](O)CO)[C@H](O)[C@H](C(=O)O)[O]2)[O][C@H]([C@H](O)CO)[C@@H]1O [stibogluconate] (first compound 0.2 µM, partner dose 2 µM) | 92.8 | 110 | 216 | 119 | 238 | 34.5 | 253 | 137 | 65.5 | 122 | 83.1 | 86.2 | 93.1 | 89.3 |  | 
CC(C)C[C@H](NC(=O)[C@H](Cc1ccccc1)NC(=O)c1cnccn1)B(O)O [Bortezomib] + CS(=O)(=O)CCNCc1ccc(-c2ccc3ncnc(Nc4ccc(OCc5cccc(F)c5)c(Cl)c4)c3c2)o1 [lapatinib] (first compound 0.001 µM, partner dose 0.8 µM) | 212 | 45.7 | 207 | 175 | 136 | 89.1 | 105 | 136 | 125 | 169 | 157 | 59.9 | 536 | 45.7 |  | 
CC(C)C[C@H](NC(=O)[C@H](Cc1ccccc1)NC(=O)c1cnccn1)B(O)O [Bortezomib] + CNC(=O)c1cc(Oc2ccc(NC(=O)Nc3ccc(Cl)c(C(F)(F)F)c3)cc2)ccn1 [sorafenib] (first compound 0.001 µM, partner dose 0.4 µM) | 101 | 144 | 331 | 211 | 57 | 49.1 | 94.9 | 165 | 113 | 662 | 208 | 104 | 503 | 53.5 |  | 
CO[C@H]1C[C@@H]2CC[C@@H](C)[C@@](O)(O2)C(=O)C(=O)N2CCCC[C@H]2C(=O)O[C@H]([C@H](C)C[C@@H]2CC[C@@H](OCCO)[C@H](OC)C2)CC(=O)[C@H](C)/C=C(\C)[C@@H](O)[C@@H](OC)C(=O)[C@H](C)C[C@H](C)/C=C/C=C/C=C/1C [everolimus] + NC(=O)Nc1cc(-c2cccc(F)c2)sc1C(=O)N[C@H]1CCCNC1 [AZD7762] (first compound 0.02 µM, partner dose 0.02 µM) | 43.4 | 63.7 | 203 | 118 | 391 |  | 91.6 | 150 | 53.3 | 256 | 131 | 107 | 212 | 110 | 110 | 68.1
CCCS(=O)(=O)Nc1ccc(F)c(C(=O)c2c[nH]c3ncc(Cl)cc23)c1F + Cn1c(Nc2ccc(C(F)(F)F)cc2)nc2cc(Oc3ccnc(-c4ncc(C(F)(F)F)[nH]4)c3)ccc21 [CHIR265] (first compound 0.08 µM, partner dose 0.08 µM) | 181 | 105 | 47.3 | 76.9 | 271 | 215 | 75.5 | 84.8 | 505 | 180 | 128 | 79.4 | 103 | 48.7 |  | 
CNC(=O)c1cc(Oc2ccc(NC(=O)Nc3ccc(Cl)c(C(F)(F)F)c3)cc2)ccn1 [sorafenib] + OCc1c[nH]c2ccccc12 [Indole-3-carbinol] (first compound 0.4 µM, partner dose 0.8 µM) | 116 | 27.9 | 77.5 | 138 | 80.6 | 124 | 17.6 | 57.6 | 133 | 57.8 | 95.4 | 99 | 105 | 23.4 |  | 
Cc1cc(Nc2cc(N3CCN(C)CC3)nc(/C=C/c3ccccc3)n2)n[nH]1 + CCCS(=O)(=O)Nc1ccc(F)c(C(=O)c2c[nH]c3ncc(Cl)cc23)c1F [PLX4720] (first compound 0.04 µM, partner dose 0.08 µM) | 81.6 | 91.3 | 130 | 134 | 100 | 112 | 25.5 | 84.3 | 62.1 | 29.1 | 87.6 | 113 | 89.7 | 79.1 |  | 
Cc1cc(Nc2cc(N3CCN(C)CC3)nc(/C=C/c3ccccc3)n2)n[nH]1 + O=C(O)[C@@H]1[O][Sb](=[O])([O][Sb]2(=[O])[O][C@H]([C@H](O)CO)[C@H](O)[C@H](C(=O)O)[O]2)[O][C@H]([C@H](O)CO)[C@@H]1O [stibogluconate] (first compound 0.04 µM, partner dose 2 µM) | 69.2 | 88.2 | 24.6 | 165 | 65.1 | 117 | 73.9 | 191 | 114 | 33.4 | 110 | 161 | 84.7 | 23.5 |  | 
CNC(=O)c1cc(Oc2ccc(NC(=O)Nc3ccc(Cl)c(C(F)(F)F)c3)cc2)ccn1 [sorafenib] + Cn1nnc2c(C(N)=O)ncn2c1=O [temozolomide] (first compound 0.4 µM, partner dose 2 µM) | 92.1 | 74.7 | 61.6 | 171 | 33 | 20.4 | 24.8 | 95.3 | 31.2 | 130 | 85.3 | 42.9 | 99.3 | 107 |  | 
CO[C@H]1C[C@@H]2CC[C@@H](C)[C@@](O)(O2)C(=O)C(=O)N2CCCC[C@H]2C(=O)O[C@H]([C@H](C)C[C@@H]2CC[C@@H](OCCO)[C@H](OC)C2)CC(=O)[C@H](C)/C=C(\C)[C@@H](O)[C@@H](OC)C(=O)[C@H](C)C[C@H](C)/C=C/C=C/C=C/1C [everolimus] + C=CCn1c(=O)c2cnc(Nc3ccc(N4CCN(C)CC4)cc3)nc2n1-c1cccc(C(C)(C)O)n1 [MK1775] (first compound 0.02 µM, partner dose 0.02 µM) | 222 | 47.9 | 120 | 65.8 | 207 |  | 256 | 298 | 257 | 153 | 128 | 92.9 | 184 | 233 | 200 | 225
CO[C@H]1C[C@@H]2CC[C@@H](C)[C@@](O)(O2)C(=O)C(=O)N2CCCC[C@H]2C(=O)O[C@H]([C@H](C)C[C@@H]2CC[C@@H](OCCO)[C@H](OC)C2)CC(=O)[C@H](C)/C=C(\C)[C@@H](O)[C@@H](OC)C(=O)[C@H](C)C[C@H](C)/C=C/C=C/C=C/1C [everolimus] + COc1cc2ncnc(Nc3ccc(Oc4ccccc4)cc3)c2cc1OC [SrcI1] (first compound 0.02 µM, partner dose 2 µM) | 155 | 110 | 134 | 29.8 | 362 |  | 27.3 | 240 | 155 | 130 | 108 | 93.1 | 132 | 51.8 | 123 | 329
Nc1ncn([C@H]2C[C@H](O)[C@@H](CO)O2)c(=O)n1 [decitabine] + OCc1c[nH]c2ccccc12 [Indole-3-carbinol] (first compound 0.1 µM, partner dose 0.8 µM) | 47.9 | 425 | 76.2 | 198 | 47.1 | 105 | 94.9 | 329 | 152 | 465 | 91.9 | 60.9 | 109 | 132 |  | 
C=C(c1ccc(C(=O)O)cc1)c1cc2c(cc1C)C(C)(C)CCC2(C)C [Bexarotene] + C#Cc1cccc(Nc2ncnc3cc(OCCOC)c(OCCOC)cc23)c1 [erlotinib] (first compound 2 µM, partner dose 0.8 µM) | 127 | 111 | 128 | 80.7 | 136 | 134 | 172 | 125 | 69.7 | 79.1 | 112 | 307 | 108 | 56 |  | 
CC(C)C[C@H](NC(=O)[C@H](Cc1ccccc1)NC(=O)c1cnccn1)B(O)O [Bortezomib] + C=C(c1ccc(C(=O)O)cc1)c1cc2c(cc1C)C(C)(C)CCC2(C)C [Bexarotene] (first compound 0.001 µM, partner dose 2 µM) | 280 | 124 | 428 | 209 | 55.5 | 65.9 | 68.8 | 241 | 89.1 | 727 | 168 | 78.5 | 780 | 70.5 |  | 

As a short view, part of the list above:
Structure (SMILES) | cleaved PARP positive nuclei fraction (MZ2-MEL) [%] | cleaved PARP positive nuclei fraction (MeWo) [%] | cleaved PARP positive nuclei fraction (RPMI7951) [%] | cleaved PARP positive nuclei fraction (RVH-421) [%] | cleaved PARP positive nuclei fraction (SkMel28) [%] | cleaved PARP positive nuclei fraction (SkMel2) [%] | cleaved PARP positive nuclei fraction (SkMel30) [%] | cleaved PARP positive nuclei fraction (UACC62) [%] | cleaved PARP positive nuclei fraction (WM115) [%] | cleaved PARP positive nuclei fraction (WM1716) [%] | cleaved PARP positive nuclei fraction (WM1745) [%] | cleaved PARP positive nuclei fraction (WM3526) [%] | cleaved PARP positive nuclei fraction (WM3619) [%] | cleaved PARP positive nuclei fraction (WM451Lu) [%] | cleaved PARP positive nuclei fraction (SkMel5) [%] | cleaved PARP positive nuclei fraction (UACC257) [%]
Cn1c(=O)n(-c2ccc(C(C)(C)C#N)cc2)c2c3cc(-c4cnc5ccccc5c4)ccc3ncc21 + CC(C)C[C@H](NC(=O)[C@H](Cc1ccccc1)NC(=O)c1cnccn1)B(O)O [Bortezomib] (first compound 0.004 µM, partner dose 0.001 µM) | 54.2 | 135 | 111 | 101 | 47.8 | 101 | 78.3 | 151 | 106 | 114 | 104 | 46.4 | 291 | 91.2 |  | 
CO[C@H]1C[C@@H]2CC[C@@H](C)[C@@](O)(O2)C(=O)C(=O)N2CCCC[C@H]2C(=O)O[C@H]([C@H](C)C[C@@H]2CC[C@@H](OCCO)[C@H](OC)C2)CC(=O)[C@H](C)/C=C(\C)[C@@H](O)[C@@H](OC)C(=O)[C@H](C)C[C@H](C)/C=C/C=C/C=C/1C [everolimus] + c1cc(-c2cnn3cc(-c4ccc(OCCN5CCCCC5)cc4)cnc23)ccn1 [Dorsomorphin] (first compound 0.02 µM, partner dose 0.4 µM) | 151 | 35 | 33.7 | 133 | 536 |  | 52.7 | 229 | 145 | 33.9 | 96.3 | 109 | 99.6 | 44.8 | 86.8 | 580
